Data reported in article doi:10.1101/2023.09.20.558697.

Biological target: T1, RokL6-His6 (Streptomyces coelicolor A3(2) M145) (UniProt Q9L112)
T1 sequence (looked up): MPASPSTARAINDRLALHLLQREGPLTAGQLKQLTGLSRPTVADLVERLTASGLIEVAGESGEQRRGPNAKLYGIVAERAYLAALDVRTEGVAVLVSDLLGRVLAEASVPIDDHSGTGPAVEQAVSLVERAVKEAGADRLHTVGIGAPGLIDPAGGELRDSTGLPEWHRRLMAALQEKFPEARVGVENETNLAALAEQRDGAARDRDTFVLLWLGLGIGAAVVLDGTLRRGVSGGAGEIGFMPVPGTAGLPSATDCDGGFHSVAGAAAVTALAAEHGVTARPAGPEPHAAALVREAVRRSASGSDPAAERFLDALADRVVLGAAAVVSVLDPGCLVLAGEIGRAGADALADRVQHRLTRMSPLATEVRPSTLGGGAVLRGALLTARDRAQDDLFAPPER
Experiment: EMSA
Conditions: 0.1-0.5 uM RokL6-His6; residues 1-399

| Sequence | binding result |
| --- | --- |
| CGCACCGGTAATCCACTATCGAATTCGCAGGCTCCCTGATAGTTTACGCCGCGGATTGAC (double strand) [RokL6-M1] | binds more weakly |
| CGCACCGGTAATCCACTATCTATCAGGCAGGCTCCGAATTCGTTTACGCCGCGGATTGAC (double strand) [RokL6-M2] | binds more weakly |

The comparison behind a weaker result is the experiment's own reference, which may not be listed here. Protein sequences can lack the tags named with them.
